Measured values: PubChem BioAssay AID1487 (National Center for Advancing Translational Sciences (NCATS), 2009)
Some of the results follow. These are further read-outs of the screen, such as a control signal, another cell line or another target. No call is given for them. Compounds called inactive in the main read-out are mostly missing here. The note in brackets gives the kind of curve behind each potency; many fits are weak.

Assay: qHTS Assay for Modulators of Lamin A Splicing
Conditions: HeLa LMNA splicing GFP/RFP minigene ratio, 48 h
Procedure, shortened: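 S3 HeLa cells stably expressing lamin A-EGFP splicing minigene plus DsRed2, 600 cells/well, 48 h compound exposure at 37C. Laser-scanning cytometry; analysed as GFP (500-530 nm)/RFP (575-640 nm) total intensity ratio; 0.5% DMSO vehicle.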

[1] = measured here: GFP splicing reporter channel
[2] = measured here: RFP viability control channel

| SMILES | AC50 [1] | AC50 [2] |
| --- | --- | --- |
| CCN(CC(=O)NC1CCS(=O)(=O)C1)c1nc(-c2cccnc2)nc2ccccc12 (stereo not drawn) | 35.5 µM [rising, single point] | 35.5 µM [rising, single point] |
| COc1ccc(-c2[nH]ncc2-c2ccc3c(c2)OCCO3)c(O)c1 | 14.1 µM [rising, partial curve, poor fit] | 14.1 µM [rising, partial curve] |
| COc1ccc(-c2cnc(SCC(=O)Nc3cc(C)on3)n2Cc2ccco2)cc1 |  | 1 µM [falling, partial curve, poor fit] |
| COc1ccccc1N/C(=N/S(=O)(=O)c1ccc(Cl)cc1)c1ccccc1 | 3.16 µM [falling, single point] | 3.16 µM [falling, single point] |
| CCCCOc1ncnc2c1[nH]c1ccccc12 | 1.78 µM [rising, single point] |  |
| Cc1ccc(C(=O)N2CCN(c3ccccn3)CC2)cc1[N+](=O)[O-] | 0.00501 µM [falling, full curve] | 0.00447 µM [falling, full curve, poor fit] |
| Cc1[nH]c2ccccc2c1N=Nc1c(C)n(C)n(-c2ccccc2)c1=O |  | 0.0112 µM [falling, full curve, poor fit] |
| COc1cccc(NC(=O)CSc2nc3ccccc3c(=O)n2Cc2cccs2)c1 |  | 11.2 µM [rising, partial curve] |
| COC(=O)COC(=O)c1ccccc1NC(=O)c1ccccc1 |  | 0.562 µM [falling, single point] |
| COC(=O)CSc1nnc(-c2ccccc2O)n1-c1ccc(C)cc1 | 0.447 µM [rising, full curve, poor fit] | 0.447 µM [rising, full curve] |
| CCOc1ccc2nc(SCC(=O)NC(=O)NCc3ccco3)sc2c1 | 35.5 µM [rising, single point] | 35.5 µM [rising, single point] |
| CCOc1ccccc1CNS(=O)(=O)c1ccc2[nH]c(=O)sc2c1 |  | 12.6 µM [rising, single point] |
| Cc1nc(-c2ccccc2)sc1C(=O)/C=C/c1ccccc1 | 11.2 µM [falling, partial curve, poor fit] | 14.1 µM [falling, partial curve] |
| COc1ccc(S(=O)(=O)N2CCC(C(=O)N3CCc4ccccc4C3)CC2)cc1 |  | 10 µM [rising, partial curve] |
| Cc1cccc(CSc2cccc3cccnc23)c1 | 8.91 µM [falling, partial curve, poor fit] | 12.6 µM [falling, partial curve] |
